Reference: patent US20250262294A1

Experiments:
[1] = biological target: chicken CD83 ectodomain (recombinant receptor protein from S2 cells) (chicken); assay: ELISA
[2] = biological target: chicken CD83 ectodomain (recombinant receptor protein from S2 cells) (chicken); assay: ELISA on chicken CD83 receptor protein, unpurified protein
[3] = biological target: chicken CD83 ectodomain (recombinant receptor protein from S2 cells) (chicken); assay: ELISA on chicken CD83 receptor protein
[4] = biological target: chicken CD83 ectodomain (recombinant receptor protein from S2 cells) (chicken); assay: ELISA on chicken CD83 receptor protein, unpurified culture medium

Measured: binding

B1: IG10 scFv-CD83 scFv bispecific scFv antibody (bispecific antibody)
chain: MDILMTQSPSSMSVSLGDTVIITCHASQGISSNIGWLQQKPGKSFKGLIYHATNLEDGVPSRFSGGGSGADYSLTISSLESEDFADYYCVQYGQFPFTFGSGTKLEIKGGGGSGGGGSGGGGSEVQLQQSVAELVRPGASVKLSCTASGFNIKNTYMHWVKQRPEQGLEWIGRIDPANGNTRYAPKFQGKATITADTSSNTAYLQLSSLTSEDTAIYYCARYYFGPDYWGQGTTLTVSSGGGGSGGGGSGGGGSGGGGSDIVMTQSPSSLAVSVGQKVTMSCTSSQVLLHSPNQKNYLAWYQQKPGQSPKLLVYFASTRESGVPDRFTGSGSGTDFTLTISSVQAEDLAVYYCQQHYSTPLTFGAGTKLELKGGGGSGGGGSGGGGSEVQLQQSGPELVKPGASVKISCKASGYTFTDYYINWVKQSHGKSLEWIGDINPTNGDSTYSQKFKGKATLTVDKSSSTAYMELRSLTSEVSAVYYCARDYAMDYWGQGTSVTVSSEPEA
binds: [1] | [2] | [3] | [4]

These are yes or no findings as the source states them, for the method shown. Binding calls can cover weak binding; strength is not graded here.
